US7067290B2, “Method for production of polyketides” (Kosan Biosciences Incorporated, priority 2002, dated 2006)
Some entries share one result that the patent states for a list of compounds.

Experiment: pH stability of triketide lactones in fermentation supernatant
Format: physicochemical
Details: pH 6.5, in 18 h, 30° C.
Protocol: Samples were centrifuged to remove cells and insoluble media components. If necessary, supernatants were diluted in 1:1 acetonitrile-water with 0.1% acetic acid. Samples were analyzed by HPLC-MS/MS, quantitating by comparison with an internal analytical standard of 2,4-dimethyl-3-hydroxyoctanoic acid δ-lactone (“P-TKL”). In cases where the purity of the analytic standard was doubtful, titers were renorted as arbitrary units. Samples were injected onto a C18 reversed-phase HPLC column and eluted with a gradient of acetonitrile in water containing 0.1% formic acid. Triketide lactones were detected using multiple reaction monitoring of the following MS/MS transitions: TKL: m/z 173 to 109; CM-TKL: m/z 193 to 119; V-TKL: m/z 171 to 107; and P-TKL: m/z 181 to 123.
To test the stability of CM-TKL and V-TKL in fermentation supernatant, the following experiment was undertaken. Supernatant from flask cultures was collected at the end of an experiment by centrifugation at 2700×g for 20 minutes. The supernatant was divided into four portions. The pH of the control portion was adjusted to 3.5, and that sample was frozen at −20° C. […] The samples were incubated for 18 hours at 30° C. then analyzed for product as described previously with the data reported as percent of the control.

| SMILES | loss of triketide lactone |
| --- | --- |
| C[C@@H]1[C@H](O)[C@@H](C)C(=O)O[C@@H]1CCl [CM-TKL] | 60–70% |
| C=C[C@H]1OC(=O)[C@H](C)[C@@H](O)[C@H]1C [V-TKL] | 60–70% |
